Measured values taken from paper doi:10.1101/2020.04.19.049288.

Chains of the proteins cited; added tags and fusions are not shown. Lines headed by an entry give the natural chain unless they say otherwise; changes in a name come on top.
UniProt Q10M12: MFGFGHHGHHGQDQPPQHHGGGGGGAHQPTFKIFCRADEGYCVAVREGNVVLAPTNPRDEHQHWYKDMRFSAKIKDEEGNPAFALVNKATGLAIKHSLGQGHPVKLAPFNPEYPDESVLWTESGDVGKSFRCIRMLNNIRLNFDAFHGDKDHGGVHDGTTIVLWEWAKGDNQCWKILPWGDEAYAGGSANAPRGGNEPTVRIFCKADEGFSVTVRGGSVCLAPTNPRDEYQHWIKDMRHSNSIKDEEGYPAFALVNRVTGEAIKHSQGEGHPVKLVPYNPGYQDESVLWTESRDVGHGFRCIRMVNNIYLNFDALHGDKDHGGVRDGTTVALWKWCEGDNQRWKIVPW
UniProt P93438: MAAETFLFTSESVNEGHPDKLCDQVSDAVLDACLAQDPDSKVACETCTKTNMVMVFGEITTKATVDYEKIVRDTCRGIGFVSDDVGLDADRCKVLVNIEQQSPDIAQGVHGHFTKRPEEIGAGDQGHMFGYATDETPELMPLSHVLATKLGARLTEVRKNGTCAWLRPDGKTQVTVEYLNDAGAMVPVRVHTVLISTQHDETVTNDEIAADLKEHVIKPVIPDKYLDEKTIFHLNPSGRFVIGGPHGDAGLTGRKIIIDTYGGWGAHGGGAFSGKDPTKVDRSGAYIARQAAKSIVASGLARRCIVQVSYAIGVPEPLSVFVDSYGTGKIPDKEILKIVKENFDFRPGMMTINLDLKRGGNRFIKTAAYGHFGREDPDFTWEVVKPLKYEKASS

B1: OsSAP8-nVenus (protein, UniProt A3BDI8 1-171)
chain: MEHKETGCQQPEGPILCINNCGFFGSAATMNMCSKCHKEMIMKQEQAKLAASSIDSIVNGGDSGKEPIIAGHAEVAVAQVEVKTLVAQPAEIAGPSEGVTVNPKGREGPNRCSTCRKRVGLTGFNCRCGNLYCAMHRYSDKHDCQFDYRTAARDAIAKANPVVKAEKLDKI

Target: Osr40c1-cVenus (rice) (UniProt Q10M12)
Experiment: split reporter

Molecule | binding
OsSAM2-nVenus (from UniProt P93438 1-394) | binds
B1 | binds

Results are given in words; binding and its absence hold for the method and conditions named. Binding seen in cells or lysates may run through a third protein. A result given as binding can be weak or reduced; the word gives no strength.
